Patent US10952436B2, “Microbiocidal quinoline (thio)carboxamide derivatives” (SYNGENTA PARTICIPATIONS AG, priority 2017, dated 2021)
Some results were stated once for a whole list of compounds, not compound by compound.

These compounds were tested on Pyrenophora teres (assay: Pyrenophora teres/Barley/Leaf Disc Preventative (Net Blotch)). Settings: 200 ppm, barley leaf segments cv. Hasso, 5-7 days after application.
Type: in vivo

Compound | control of Pyrenophora teres
Cc1c(NC(=O)[C@](C)(Cc2ccccc2)CC(C)C)cnc2c(F)cccc12 [Compound F-3, (2S)-2-benzyl-N-(8-fluoro-4-methyl-3-quinolyl)-2,4-dimethyl-pentanamide] | at least 80%
CC(C)C[C@@](C)(Cc1ccccc1)C(=O)Nc1cnc2c(F)cccc2c1 [Compound F-20, (2S)-2-benzyl-N-(8-fluoro-3-quinolyl)-2,4-dimethyl-pentanamide] | at least 80%

Each compound was assayed on Mycosphaerella graminicola (Septoria tritici) (assay: Mycosphaerella graminicola (Septoria tritici)/Liquid Culture (Septoria blotch)). Settings: 200 ppm; liquid culture, compared to untreated control, 4-5 days after application.
Type: cell-based

Compound | control of Mycosphaerella graminicola
Cc1c(NC(=O)C(Cc2ccccc2)CC(C)C)cnc2c(F)cccc12 (centres unmarked) [Compound E-19, 2-benzyl-N-(8-fluoro-4-methyl-3-quinolyl)-4-methyl-pentanamide] | at least 80%
C=C(C)CC(C)(Cc1ccccc1)C(=O)Nc1cnc2ccccc2c1 (centres unmarked) [Compound E-64, 2-benzyl-2,4-dimethyl-N-(3-quinolyl)pent-4-enamide] | at least 80%
CC(Cc1ccccc1)(CC(F)(F)F)C(=O)Nc1cnc2c(F)cccc2c1 (centres unmarked) [Compound E-80, 2-benzyl-4,4,4-trifluoro-N-(8-fluoro-3-quinolyl)-2-methyl-butanamide] | at least 80%
Cc1nc2c(F)cccc2cc1NC(=O)[C@](C)(Cc1ccccc1)CC(C)C [Compound F-7, (2S)-2-benzyl-N-(8-fluoro-2-methyl-3-quinolyl)-2,4-dimethyl-pentanamide] | at least 80%
Cc1nc2c(F)cccc2cc1NC(=O)[C@@](C)(Cc1ccccc1)CC(C)C [Compound F-8, (2R)-2-benzyl-N-(8-fluoro-2-methyl-3-quinolyl)-2,4-dimethyl-pentanamide] | at least 80%
Cc1c(NC(=O)[C@](C)(Cc2ccccc2)CC(F)(F)F)cnc2c(F)cccc12 [Compound F-13, (2R)-2-benzyl-4,4,4-trifluoro-N-(8-fluoro-4-methyl-3-quinolyl)-2-methyl-butanamide] | at least 80%
